# Assay results reported in doi:10.1101/2025.09.11.675134 (bioRxiv, 2025).
# Experiment: general procedure: Fmoc solid-phase peptide synthesis; O-t-Butyl-L-threonine-2-chlorotrityl resin; HBTU
# Details: late stage modification step
Substance,step yield,final HPLC purity (220 nm)
DOTA-β-Gal-TATE [DOTA-β-Gal-TATE],45%,>95%
DOTA-β-Glu-TATE,40%,–
